Literature values as cited in EP0202661B1, “Isolation of castanospermine and its use as an antidiabetic agent” (MERRELL DOW PHARMACEUTICALS INC., priority 1985, dated 1986).
At least one structure is not confirmed: it was looked up by name or label, or the drawing left a doubt.

Tested on: carbohydrate induced hypertriglyceridemia
Details: administered with the diet; Metabolism, Vol. 31, 1982, pages 710-714; cited from earlier work

C[C@H]1O[C@H](O[C@H]2[C@H](O)[C@@H](O)[C@@H](O[C@H]3[C@H](O)[C@@H](O)C(O)O[C@@H]3CO)O[C@@H]2CO)[C@H](O)[C@@H](O)[C@@H]1N[C@H]1C=C(CO)[C@@H](O)[C@H](O)[C@H]1O (stereo partly shown) [Acarbose]
effect on carbohydrate induced hypertriglyceridemia: reduced carbohydrate induced hypertriglyceridemia
